PMC12263876, “DDX39B K63-linked ubiquitination mediated by TRIM28 promotes NSCLC metastasis by enhancing ECAD lysosomal degradation” (Signal Transduction and Targeted Therapy, 2025)

Sequences of proteins named here, by UniProt entry; tags and fusion partners are left off. A change or cut given only in a name is not applied to a line headed by its entry.
UniProt Q13838: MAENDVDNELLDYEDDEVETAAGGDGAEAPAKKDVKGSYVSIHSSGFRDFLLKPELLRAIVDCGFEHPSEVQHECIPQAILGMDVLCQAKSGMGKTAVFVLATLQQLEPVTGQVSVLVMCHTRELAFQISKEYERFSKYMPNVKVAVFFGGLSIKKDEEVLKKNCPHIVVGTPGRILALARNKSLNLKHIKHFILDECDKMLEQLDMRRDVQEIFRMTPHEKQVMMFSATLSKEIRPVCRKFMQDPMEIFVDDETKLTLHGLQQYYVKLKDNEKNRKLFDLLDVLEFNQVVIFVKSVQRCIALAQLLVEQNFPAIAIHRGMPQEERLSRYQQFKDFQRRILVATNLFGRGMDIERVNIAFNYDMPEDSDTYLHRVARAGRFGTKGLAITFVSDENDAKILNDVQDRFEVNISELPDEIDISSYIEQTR
UniProt P12814: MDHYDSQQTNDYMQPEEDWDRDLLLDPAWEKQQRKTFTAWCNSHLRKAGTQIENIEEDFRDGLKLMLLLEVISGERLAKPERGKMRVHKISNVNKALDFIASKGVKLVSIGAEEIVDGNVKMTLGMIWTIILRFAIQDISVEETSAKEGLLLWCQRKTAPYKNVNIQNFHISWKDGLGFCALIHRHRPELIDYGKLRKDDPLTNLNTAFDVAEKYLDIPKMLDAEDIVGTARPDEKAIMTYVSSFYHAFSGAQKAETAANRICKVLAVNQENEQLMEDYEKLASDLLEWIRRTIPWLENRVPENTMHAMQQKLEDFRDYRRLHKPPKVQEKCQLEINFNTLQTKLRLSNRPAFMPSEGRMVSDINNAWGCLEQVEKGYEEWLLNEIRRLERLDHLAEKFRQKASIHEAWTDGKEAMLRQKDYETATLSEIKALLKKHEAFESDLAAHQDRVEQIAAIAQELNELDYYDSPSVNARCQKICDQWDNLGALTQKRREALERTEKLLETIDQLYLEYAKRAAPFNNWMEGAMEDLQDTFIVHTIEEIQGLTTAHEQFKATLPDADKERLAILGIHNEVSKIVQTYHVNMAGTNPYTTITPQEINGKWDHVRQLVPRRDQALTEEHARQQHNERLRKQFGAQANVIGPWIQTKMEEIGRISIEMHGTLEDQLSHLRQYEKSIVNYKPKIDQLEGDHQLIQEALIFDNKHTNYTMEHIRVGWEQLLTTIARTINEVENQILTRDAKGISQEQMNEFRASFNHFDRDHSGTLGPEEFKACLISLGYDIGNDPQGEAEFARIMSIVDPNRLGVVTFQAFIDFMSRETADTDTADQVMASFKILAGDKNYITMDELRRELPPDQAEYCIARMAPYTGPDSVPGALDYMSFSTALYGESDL
UniProt O43707: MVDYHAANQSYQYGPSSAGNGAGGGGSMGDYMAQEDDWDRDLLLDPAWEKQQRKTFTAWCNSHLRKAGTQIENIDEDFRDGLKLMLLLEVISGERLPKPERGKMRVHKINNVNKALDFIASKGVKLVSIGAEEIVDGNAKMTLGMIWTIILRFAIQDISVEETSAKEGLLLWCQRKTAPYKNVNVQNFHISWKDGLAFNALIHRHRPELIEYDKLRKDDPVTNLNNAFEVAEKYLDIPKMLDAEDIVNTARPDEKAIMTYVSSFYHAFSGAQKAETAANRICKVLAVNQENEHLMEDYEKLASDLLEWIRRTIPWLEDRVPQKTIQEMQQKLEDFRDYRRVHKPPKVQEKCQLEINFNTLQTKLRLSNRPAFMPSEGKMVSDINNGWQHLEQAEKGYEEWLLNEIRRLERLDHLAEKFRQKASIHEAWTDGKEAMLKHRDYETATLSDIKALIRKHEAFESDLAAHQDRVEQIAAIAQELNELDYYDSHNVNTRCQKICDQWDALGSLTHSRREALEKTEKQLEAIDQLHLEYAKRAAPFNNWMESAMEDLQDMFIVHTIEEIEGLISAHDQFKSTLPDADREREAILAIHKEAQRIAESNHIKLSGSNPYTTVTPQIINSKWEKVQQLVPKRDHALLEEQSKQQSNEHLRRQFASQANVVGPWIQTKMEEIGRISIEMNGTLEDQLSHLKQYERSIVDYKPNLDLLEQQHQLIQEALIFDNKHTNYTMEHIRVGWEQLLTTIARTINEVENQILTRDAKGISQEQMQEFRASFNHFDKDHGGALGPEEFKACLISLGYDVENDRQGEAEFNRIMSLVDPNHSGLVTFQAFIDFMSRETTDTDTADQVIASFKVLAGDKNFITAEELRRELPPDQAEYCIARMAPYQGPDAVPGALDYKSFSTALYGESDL
UniProt P46940: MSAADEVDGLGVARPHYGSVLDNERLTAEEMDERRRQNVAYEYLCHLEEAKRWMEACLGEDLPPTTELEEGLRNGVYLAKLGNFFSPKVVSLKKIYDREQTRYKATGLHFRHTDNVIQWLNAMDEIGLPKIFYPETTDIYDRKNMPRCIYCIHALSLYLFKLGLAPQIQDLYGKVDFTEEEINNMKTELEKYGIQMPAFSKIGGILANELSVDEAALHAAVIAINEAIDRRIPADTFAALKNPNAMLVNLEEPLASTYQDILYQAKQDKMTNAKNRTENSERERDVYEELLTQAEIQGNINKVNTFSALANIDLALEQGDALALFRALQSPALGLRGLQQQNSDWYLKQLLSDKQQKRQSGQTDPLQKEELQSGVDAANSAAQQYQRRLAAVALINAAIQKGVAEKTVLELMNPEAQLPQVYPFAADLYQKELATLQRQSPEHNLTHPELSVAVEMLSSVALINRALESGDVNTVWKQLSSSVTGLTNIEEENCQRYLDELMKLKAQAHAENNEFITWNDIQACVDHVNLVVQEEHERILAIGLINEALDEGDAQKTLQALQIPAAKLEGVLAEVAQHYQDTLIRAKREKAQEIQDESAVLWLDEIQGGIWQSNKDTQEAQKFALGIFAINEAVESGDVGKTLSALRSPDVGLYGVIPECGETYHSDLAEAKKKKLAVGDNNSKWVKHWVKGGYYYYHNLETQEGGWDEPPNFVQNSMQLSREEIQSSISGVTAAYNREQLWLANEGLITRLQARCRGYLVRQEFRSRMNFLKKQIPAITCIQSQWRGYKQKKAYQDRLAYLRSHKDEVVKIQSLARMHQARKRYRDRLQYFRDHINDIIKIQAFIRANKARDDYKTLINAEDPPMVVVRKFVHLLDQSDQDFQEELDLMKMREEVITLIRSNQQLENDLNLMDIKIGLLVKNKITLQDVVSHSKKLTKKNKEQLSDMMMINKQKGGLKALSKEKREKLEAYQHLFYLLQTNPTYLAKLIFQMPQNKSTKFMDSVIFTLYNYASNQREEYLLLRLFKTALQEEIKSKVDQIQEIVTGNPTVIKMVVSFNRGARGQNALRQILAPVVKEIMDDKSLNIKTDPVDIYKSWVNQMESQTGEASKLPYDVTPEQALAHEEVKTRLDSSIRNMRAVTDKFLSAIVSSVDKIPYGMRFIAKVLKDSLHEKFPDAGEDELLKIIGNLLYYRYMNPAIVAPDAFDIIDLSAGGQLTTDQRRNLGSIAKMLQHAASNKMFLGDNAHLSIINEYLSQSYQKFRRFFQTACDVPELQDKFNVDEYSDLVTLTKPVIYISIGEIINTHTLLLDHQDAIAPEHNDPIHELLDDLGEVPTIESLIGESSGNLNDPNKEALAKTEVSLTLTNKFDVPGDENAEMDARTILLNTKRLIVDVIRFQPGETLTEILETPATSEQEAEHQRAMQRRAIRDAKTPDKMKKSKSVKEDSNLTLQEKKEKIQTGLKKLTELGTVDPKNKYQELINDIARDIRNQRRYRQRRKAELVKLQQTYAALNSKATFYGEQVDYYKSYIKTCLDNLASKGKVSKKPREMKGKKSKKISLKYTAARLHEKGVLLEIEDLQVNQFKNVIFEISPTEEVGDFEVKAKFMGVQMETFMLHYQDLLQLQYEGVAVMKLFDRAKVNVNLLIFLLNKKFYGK
UniProt Q13263: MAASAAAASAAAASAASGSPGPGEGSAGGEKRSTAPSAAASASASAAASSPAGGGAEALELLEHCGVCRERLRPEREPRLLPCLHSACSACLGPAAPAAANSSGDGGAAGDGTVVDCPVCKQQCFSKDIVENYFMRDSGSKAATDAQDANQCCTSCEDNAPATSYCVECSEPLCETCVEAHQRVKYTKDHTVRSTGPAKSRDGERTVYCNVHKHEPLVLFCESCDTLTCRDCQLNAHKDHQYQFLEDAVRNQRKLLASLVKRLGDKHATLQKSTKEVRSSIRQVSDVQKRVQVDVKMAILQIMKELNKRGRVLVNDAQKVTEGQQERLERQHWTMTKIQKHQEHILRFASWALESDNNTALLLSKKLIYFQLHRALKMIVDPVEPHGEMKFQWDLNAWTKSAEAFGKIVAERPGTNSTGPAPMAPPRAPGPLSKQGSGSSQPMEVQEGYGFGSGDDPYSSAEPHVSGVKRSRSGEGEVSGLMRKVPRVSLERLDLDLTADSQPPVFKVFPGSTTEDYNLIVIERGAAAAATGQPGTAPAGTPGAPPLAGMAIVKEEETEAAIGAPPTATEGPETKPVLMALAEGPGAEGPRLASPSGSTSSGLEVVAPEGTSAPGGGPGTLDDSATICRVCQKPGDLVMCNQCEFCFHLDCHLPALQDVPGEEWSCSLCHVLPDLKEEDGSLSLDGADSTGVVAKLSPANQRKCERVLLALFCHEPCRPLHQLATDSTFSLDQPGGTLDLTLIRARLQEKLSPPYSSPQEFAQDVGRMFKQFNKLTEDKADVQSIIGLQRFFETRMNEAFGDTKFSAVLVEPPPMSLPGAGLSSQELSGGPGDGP

Molecular target: Flag-DDX39B (DExD-box helicase 39B) (UniProt Q13838)
Assay: affinity purification with mass spectrometry; Flag-DDX39B immunoprecipitated with anti-Flag magnetic beads overnight at 4 °C, washed 5 times with TBS (150 mM NaCl, 50 mM Tris-HCl pH 7.4); SDS-PAGE gel bands of around 70 kDa and above cut out for mass spectrometry; proteins with at least 4 unique peptides kept

binding	Substance
binds	ACTN1 (from UniProt P12814 1-892)
binds	ACTN4 (from UniProt O43707 1-911)
binds	IQGAP1 (from UniProt P46940 1-1657)
binds	TRIM28 (tripartite motif-containing 28), endogenous (from UniProt Q13263 1-835)

Results are given in words; binding and its absence hold for the method and conditions named. In cells and extracts the contact can be indirect. These calls come from enrichment with a bait or labelling near it, and not all partners need be listed.
